Screen size: about 52,000 sequences; about 210 (0.4%) were called active.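 The calls were made as follows: active = gene whose silencing raises cell survival under the drug, median off-target-corrected z-score across its silencing RNAs 2 or more; inactive = the rest.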 The list shows a part of the results.
Assay: Resistance to Poly (ADP-Ribose) Polymerase inhibitor: Gene Identification via Genome-wide siRNA Screen
Details: mouse BRCA2 R2336H ES cells, olaparib, CellTiter-Glo viability; hits give high values
Summary of the method: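 Mouse BRCA2 R2336H ES cells were reverse-transfected with siRNA (20 nM final), treated at 48 h with 500 nM olaparib, and read by CellTiter-Glo after 72 h. Scores: MAD-based z per siRNA, median per gene, seed off-target correction.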

| Sequence | z-score |
| --- | --- |
| GCAGGCGAUAUAGAAGCAATT against Frg1 | inactive: -2.08 |
| GGUAUGCAUUCCAGAAAUATT against 4933409N07Rik | inactive: 0.411 |
| GGUCUAUCCCAUCAUGCCUTT against Clcnka | inactive: 0.645 |
| GGCUUUCACUGAAGAUCUUTT against Fancg | inactive: 1.18 |
| AACACUGGGUACAUCUACATT against H2-Q7 | inactive: 0.694 |
| GGAUGAGAAUAGUGCUAAATT against 4933432P15Rik | inactive: -0.216 |
| GGACAAUGCAGUGCUGAAATT against Car2 | inactive: -0.591 |
| CCAAAACGGAGAAAAUCAGTT against Ccar1 | inactive: 1.22 |
| GGUUAUCAUACUUUUUGUGTT against Phf10 | inactive: 0.0269 |
| CCUCCUAUGUCUUCCUCAUTT against Olfr1173 | inactive: -0.136 |
| CCUAGUAGUUGACCAUAUATT against 4732421G10Rik | inactive: -0.16 |
| GCCUGGCUGACGAUAUAGATT against Golga2 | inactive: 1.16 |
| GUUACCACACCAAAAAUGGTT against Olfr1299 | inactive: -0.314 |
| GGUGUACCUUGGGACUUACTT against 2810441A10Rik | inactive: -0.555 |
| GGAGCAUUUAAAAGUUCCATT against 6430514L14Rik | inactive: -0.31 |
| GACUACAAAGGAGAGCAAATT against Igfbp6 | inactive: 2 |
| GGCUUUUAAGUUCUUCCAGTT against Rod1 | inactive: -0.557 |
| GGCAUUCAGUGUUGCGUACTT against Apba1 | inactive: 0.905 |
| GGAUUCCAGAGAAAUGUGATT against BC031901 | inactive: -0.236 |
| GGUGAUGAUCCCAUGGGUUTT against Ube2g2 | inactive: -1.04 |
| AUUCUCUGGUUCAAGCUACTT against Olfr223 | inactive: -0.522 |
| GGAACAACUUCGAACAUAATT against Dok3 | inactive: -3.1 |
| GGAGAAAAACAAAAACCAATT against Fliih | inactive: -1.39 |
| GGGCAGUAAGACCUUCAUGTT against Dhcr24 | inactive: 1.62 |
| CCUGAAUACCAUGACAUGUTT against Tfpi2 | inactive: -0.48 |
| CGUGGUUAAGUUUGCUGGGTT against P2rx3 | inactive: -0.11 |

A different layout for part of the listing above:
Sequence | z-score
GGUAUGCAUUCCAGAAAUATT against 4933409N07Rik | inactive: 0.411
GGAUGAGAAUAGUGCUAAATT against 4933432P15Rik | inactive: -0.216

(continued)

| Sequence | z-score |
| --- | --- |
| GGCAGAGUGCAUUUUGCUATT against Ptpn5 | inactive: -0.352 |
| GCAUAAAGCAAGGUUGAGUTT against D7Ertd458e | inactive: 0.483 |
| GGCCCUGUGAUAUUUCUCGTT against Pax8 | inactive: -1.31 |
| GGGCAAAGACAUUUUGUAUTT against Nt5c2 | inactive: 0.606 |
| CGGACUUCAAGGACAAGAUTT against Carm1 | inactive: 0.0425 |
| CCUUUGUAAAGACUACUUATT against Ssh2 | inactive: 0.403 |
| GGCUACAAACUUCAAGAAATT against Cel | inactive: -0.0479 |
| GCCGAAUAUUUCGGAGCCATT against Ropn1 | inactive: -3.06 |
| GGCAGAGAAAGAGCUAAAGTT against Dtx3 | inactive: 3.63 |
| GCCGAGGCUGUUGUGUUGATT against Gpaa1 | inactive: 1.09 |
| GGAGGUCAGUAGCUUCCUUTT against 2310002B14Rik | inactive: 0.208 |
| GCCAACGAGAGUAAACACGTT against 5930403N24Rik | inactive: 0.0348 |
| GCAUCAUACCACUGUGUUUTT against Obox1 | inactive: -1.18 |
| GGAUUAUGGUCCAAAUAAATT against Hpcal4 | inactive: -1.33 |
| CCAUGUUUUCCGCUUCAAUTT against Kif1c | inactive: 0.202 |
| CCAUCCCAUUUAAUGGAUGTT against Olfr1257 | inactive: 0.686 |
| GGAGGUCCAACUAAGACACTT against Fzd8 | inactive: -0.057 |
| GCCCUACGGACAAACAGCATT against 6330581L23Rik | inactive: 0.139 |
| CCUUCUUGCUCACAAAGUATT against C030030G16Rik | inactive: -0.729 |
| CCAUCUUCAACGAAACCUATT against 1700013E18Rik | inactive: 2.12 |
| GGUCACGUGCAGUUAUAUCTT against Rab32 | inactive: 0.0398 |
| GGACCUUCCGUGAGAUUAUTT against BC048082 | inactive: 0.215 |
| GGUGGCUAUGUAAUCUCAGTT against BC025206 | inactive: 2.82 |
| GGUGCAUUACAAAUACACATT against Ncf2 | inactive: -0.0444 |
| GGCAAAGCUGGUGAAAUACTT against Ksr | inactive: -0.214 |
| GGAAUUGGAUUCAGUUUACTT against Ppp3ca | inactive: 1.12 |

| Sequence | z-score |
| --- | --- |
| GGAAAUCAAGAAAGCACAGTT against Guk1 | inactive: -0.0782 |
| GGCAGUCAAAUUUAUAGUATT against Ckap4 | inactive: -0.24 |
| GCGCAAUGCCAAGGUGUACTT against A930005I04Rik | inactive: 2.42 |
| GGGUUCAAAAGCCCAUAUUTT against MGC107702 | inactive: 2.49 |
| GGCAAUAUCCGGUUUUUAGTT against Sema6d | inactive: 0.603 |
| GCUCAGACAAGAAUUGCUATT against Specc1 | inactive: -0.587 |
| CCAACAUGCUCUAUCUUUUTT against 5330437I02Rik | inactive: -0.428 |
| GCGAGUGAAAAACCAAGGCTT against Loxl1 | inactive: -2.54 |
| GGAAGACAGCAUGUGGACATT against Ghrh | inactive: -0.896 |
| GGCAUUAUUAAAAGUGUGATT against Psmd9 | inactive: 0.239 |
| GGAAGCCUUUUGAUGACGCTT against Gsta3 | inactive: -0.0564 |
| GGCAUGAUGCUGAUCAUUCTT against Olfr1100 | inactive: -0.701 |
| UAAUAUCUGGCACUUUAUGTT against Ctxn | inactive: -0.124 |
| GGUAAUUGAGCUGAGUUCUTT against Srisnf2l | inactive: -0.648 |
| GGUACGGUGUUUUGGAUACTT against 2310044D20Rik | inactive: 0.047 |
| GCUCUGUUGGAAAGGUUUATT against Exosc6 | inactive: -0.686 |
| CCUUGUUAUUAGGAACUCUTT against Xpo7 | inactive: 0.906 |
| GGACAAGCAAUAACUCUACTT against Mapkapk2 | inactive: -0.948 |
| GGUAGUGAAGUUCUCCUACTT against Spop | inactive: -0.41 |
| GGACCUAAGUGUGAAAUACTT against 2810408E11Rik | inactive: -0.0518 |
| GGAGAAAGACAAGGAAAAUTT against Clk3 | inactive: 0.99 |
| CCUCAUUCAGUAUGUCGCATT against 2410024A21Rik | inactive: -0.708 |
| CCCAUCAAUAUCAUAUCCATT against Car7 | inactive: -1.16 |
| GCUGUUGGUUGAGCCUGAATT against Ager | inactive: -1.12 |
| GGGAUGAUGCCAAAUAUAUTT against Kl | inactive: -0.156 |
| GCUGUCUAAUGUCAAUUCUTT against Txnrd1 | inactive: -0.521 |

| Sequence | z-score |
| --- | --- |
| GGAAUUAGACAUUCGAACATT against Rnf20 | inactive: 1.25 |
| GCCUCUCCUAUGUUCAGAGTT against 1700060H10Rik | inactive: -0.564 |
| CGUGUACGUCAUGGUAUUUTT against Map2k1 | inactive: -1.19 |
| GGAUACUCUCGAACUCGAUTT against 9230104L09Rik | inactive: 0.474 |
| GCAGCAUGUUCGUCUUUGGTT against Lztr1 | inactive: 0.19 |
| GGAUUGUUCGAGCUAAAAATT against Tnfsf10 | inactive: 0.57 |
| CCUAACACCAGUUGUGUUUTT against Pbx2 | inactive: 0.9 |
| GGAGUUGCUUAUCUAUGAATT against Cpsf1 | inactive: -1.71 |
| CCUAGUCACAAAUUCAGGATT against 2810030E01Rik | inactive: -0.262 |
| CCUAUGUGCGUUCCAAGCATT against Eif5b | inactive: -1.86 |
| GGCAUGAGCUAUCAGGACUTT against 4931407K02Rik | inactive: -0.292 |
| GGAAAUACGAAAAGUUGUATT against Tsn | inactive: 0.551 |
| GGCCACGUUUCUCUUCACCTT against Nyx | inactive: 2.67 |
| GGCCACUAGUAAGAAGAAATT against Usp19 | inactive: 0.463 |
| GCAUCAAAUAGUGGUACCUTT against 2700023B17Rik | inactive: -0.325 |
| CGUAAAACUCUUAGGCAUGTT against Npm1 | active: 2.54 |
| GGAAUUCAAGGAUCGAUCUTT against Tnfrsf19 | inactive: -1.48 |
| GCCAAGAAGUCGGUGGACATT against Cebpa | inactive: -0.624 |
| CCUGCUCUUCCGAUGCUCATT against Chkb | inactive: 1.97 |
| GGUCACGACUCUUCAUGAUTT against Nrl | inactive: -0.0461 |
| GGACUGGUUCUUCAGAUCCTT against 8430408G22Rik | inactive: -0.942 |
| GGCCAUGUGGUUCCUGCUUTT against Scnn1b | inactive: 1.87 |
| CGACUGCAUUCAAACUACUTT against 2900010M23Rik | inactive: -1.03 |
| CGUUCCGAAGCAACAUCGUTT against Slc9a4 | inactive: 0.176 |
| GGAAAAAGCGGAAAUUCAGTT against Pgbd5 | inactive: 1.11 |
| GGAAAUAAGAGAGAGUACATT against Pcbp2 | inactive: 0.477 |

Rewritten as tab-separated lines: entries from further up
Sequence	z-score
GGAAUUAGACAUUCGAACATT against Rnf20	inactive: 1.25
GCCUCUCCUAUGUUCAGAGTT against 1700060H10Rik	inactive: -0.564
CGUGUACGUCAUGGUAUUUTT against Map2k1	inactive: -1.19
GGAUACUCUCGAACUCGAUTT against 9230104L09Rik	inactive: 0.474
GGAUUGUUCGAGCUAAAAATT against Tnfsf10	inactive: 0.57
GGAGUUGCUUAUCUAUGAATT against Cpsf1	inactive: -1.71
CCUAUGUGCGUUCCAAGCATT against Eif5b	inactive: -1.86
GGCAUGAGCUAUCAGGACUTT against 4931407K02Rik	inactive: -0.292
GGAAAUACGAAAAGUUGUATT against Tsn	inactive: 0.551
GGCCACGUUUCUCUUCACCTT against Nyx	inactive: 2.67
GCAUCAAAUAGUGGUACCUTT against 2700023B17Rik	inactive: -0.325
CGUAAAACUCUUAGGCAUGTT against Npm1	active: 2.54
GGAAUUCAAGGAUCGAUCUTT against Tnfrsf19	inactive: -1.48
GCCAAGAAGUCGGUGGACATT against Cebpa	inactive: -0.624
CCUGCUCUUCCGAUGCUCATT against Chkb	inactive: 1.97
GGUCACGACUCUUCAUGAUTT against Nrl	inactive: -0.0461
GGCCAUGUGGUUCCUGCUUTT against Scnn1b	inactive: 1.87
CGACUGCAUUCAAACUACUTT against 2900010M23Rik	inactive: -1.03
CGUUCCGAAGCAACAUCGUTT against Slc9a4	inactive: 0.176
GGAAAAAGCGGAAAUUCAGTT against Pgbd5	inactive: 1.11
GGAAAUAAGAGAGAGUACATT against Pcbp2	inactive: 0.477

Source: PubChem BioAssay AID1347423 (Functional Genomics Laboratory (NCATS/FGL), 2020)
